Measured data: PubChem BioAssay AID1259405 (NCATS, 2018)

- Test: 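Knock-downs that lift recombinant protein yield in hamster ovary cells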 (primary screen)
- System: Chinese hamster CHO-K1 ovary cells with stable secreted eGFP expression
- Reagents: single siRNA against mouse genes, 0.8 pmol siRNA per well (2 µl of 400 nM stock)
- Duration: 3 days
- Read-out: 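Per-well intracellular GFP measured by laser scanning cytometry, plus viability from ATP luminescence, each relative to plate median of non-targeting control wells, in %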
- Direction: GFP, % of control: higher = more GFP per well, higher productivity; viability (ATP), % of control: higher = more viable cells (more ATP)
- Rule for the call: 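a knock-down is called active if GFP reaches 120% or more of non-targeting control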
This is an unselected part of about 50,000 reagents. Over the whole deposit, about 4,000 (8%) got an active call. 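Mouse siRNA library applied to hamster cells; one well for each siRNA.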 Reagents against one gene are numbered here. No sequences are given here.

GFP, % of control	viability (ATP), % of control	call	Target gene	reagent
74.8	89.2	inactive	Tmem131l (transmembrane 131 like)	1
65.4	81.4	inactive	Tmem131l (transmembrane 131 like)	2
88.1	93.1	inactive	Tmem131l (transmembrane 131 like)	3
54.4	29.5	inactive	Nudt4 (nudix hydrolase 4)	1
76.4	101	inactive	Nudt4 (nudix hydrolase 4)	2
69.5	72.4	inactive	Nudt4 (nudix hydrolase 4)	3
56.8	68	inactive	Prkcb (protein kinase C, beta)	1
77.3	93.1	inactive	Prkcb (protein kinase C, beta)	2
43.9	51.7	inactive	Prkcb (protein kinase C, beta)	3
104	105	inactive	Ptprcap	1
56.6	30.7	inactive	Ptprcap	2
44.9	48.1	inactive	Fxn (frataxin)	1
83.6	85.3	inactive	Fxn (frataxin)	2
63.1	32.9	inactive	Fxn (frataxin)	3
92.8	85.8	inactive	Trim13 (tripartite motif-containing 13)	1
49.1	67.8	inactive	Trim13 (tripartite motif-containing 13)	2
65.5	48.5	inactive	Trim13 (tripartite motif-containing 13)	3
74.7	87.8	inactive	Gtsf2 (gametocyte specific factor 2)	1
76.1	79.1	inactive	Gtsf2 (gametocyte specific factor 2)	2
116	121	inactive	Gtsf2 (gametocyte specific factor 2)	3
53.4	90.6	inactive	Pdhb (pyruvate dehydrogenase (lipoamide) beta)	1
32.7	56.9	inactive	Pdhb (pyruvate dehydrogenase (lipoamide) beta)	2
73.7	81.5	inactive	Pdhb (pyruvate dehydrogenase (lipoamide) beta)	3
83.1	97.7	inactive	Cyp7a1 (cytochrome P450, family 7, subfamily a, polypeptide 1)	1
72.5	84.6	inactive	Cyp7a1 (cytochrome P450, family 7, subfamily a, polypeptide 1)	2
79.4	80.1	inactive	Cyp7a1 (cytochrome P450, family 7, subfamily a, polypeptide 1)	3

Continued; the last 3 above are carried over.
GFP, % of control	viability (ATP), % of control	call	Target gene	reagent
83.1	97.7	inactive	Cyp7a1 (cytochrome P450, family 7, subfamily a, polypeptide 1)	1
72.5	84.6	inactive	Cyp7a1 (cytochrome P450, family 7, subfamily a, polypeptide 1)	2
79.4	80.1	inactive	Cyp7a1 (cytochrome P450, family 7, subfamily a, polypeptide 1)	3
127	98.8	active	Ube2n (ubiquitin-conjugating enzyme E2N)	1
82.5	85.9	inactive	Ube2n (ubiquitin-conjugating enzyme E2N)	2
91.9	107	inactive	Ube2n (ubiquitin-conjugating enzyme E2N)	3
68.5	65.8	inactive	Or1j12 (olfactory receptor family 1 subfamily J member 12)	1
108	49.2	inactive	Or1j12 (olfactory receptor family 1 subfamily J member 12)	2
42.5	66.6	inactive	Or1j12 (olfactory receptor family 1 subfamily J member 12)	3
109	96.7	inactive	Dcaf12 (DDB1 and CUL4 associated factor 12)	1
112	78.4	inactive	Dcaf12 (DDB1 and CUL4 associated factor 12)	2
94.7	106	inactive	Dcaf12 (DDB1 and CUL4 associated factor 12)	3
65.3	78.7	inactive	Ifi44l (interferon-induced protein 44 like)	1
96.9	83.6	inactive	Ifi44l (interferon-induced protein 44 like)	2
67.7	92	inactive	Ifi44l (interferon-induced protein 44 like)	3
49	69	inactive	Plat (plasminogen activator, tissue)	1
68.8	55.8	inactive	Plat (plasminogen activator, tissue)	2
67.4	50	inactive	Plat (plasminogen activator, tissue)	3
85	67.9	inactive	Dusp3	1
69.9	68.2	inactive	Dusp3	2
138	85.4	active	Dusp3	3
61.2	76.3	inactive	Zfp108 (zinc finger protein 108)	1
63.6	75.4	inactive	Zfp108 (zinc finger protein 108)	2
150	72.1	active	Zfp108 (zinc finger protein 108)	3
96.7	99.5	inactive	Zfp108 (zinc finger protein 108)	4
87.4	84.2	inactive	Zfp108 (zinc finger protein 108)	5
92.8	100	inactive	Zfp108 (zinc finger protein 108)	6
78	66.8	inactive	Phyhd1 (phytanoyl-CoA dioxygenase domain containing 1)	1
56.8	75.4	inactive	Phyhd1 (phytanoyl-CoA dioxygenase domain containing 1)	2
58.4	74.8	inactive	Phyhd1 (phytanoyl-CoA dioxygenase domain containing 1)	3
34.6	36.3	inactive	Or10u3 (olfactory receptor family 10 subfamily U member 3)	1
37.4	55.1	inactive	Or10u3 (olfactory receptor family 10 subfamily U member 3)	2
132	76.5	active	Or10u3 (olfactory receptor family 10 subfamily U member 3)	3
92.2	109	inactive	Hsd3b6	1
73.6	79.6	inactive	Hsd3b6	2
